Source: the supplement of paper PMC10849652
The other results are listed elsewhere or left out.

By UniProt entry, the sequences of proteins in these tests, tags left out. Where a name states a change or a piece, a line headed by the entry shows the natural chain unless it says otherwise.
UniProt Q86X83, whole entry, looked up: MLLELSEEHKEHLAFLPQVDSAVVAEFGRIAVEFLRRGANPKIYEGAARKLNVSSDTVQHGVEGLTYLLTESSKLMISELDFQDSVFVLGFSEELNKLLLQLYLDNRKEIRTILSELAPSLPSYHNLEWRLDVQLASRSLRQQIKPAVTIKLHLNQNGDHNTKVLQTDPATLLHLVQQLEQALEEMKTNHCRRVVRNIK
UniProt P67870, whole entry, looked up: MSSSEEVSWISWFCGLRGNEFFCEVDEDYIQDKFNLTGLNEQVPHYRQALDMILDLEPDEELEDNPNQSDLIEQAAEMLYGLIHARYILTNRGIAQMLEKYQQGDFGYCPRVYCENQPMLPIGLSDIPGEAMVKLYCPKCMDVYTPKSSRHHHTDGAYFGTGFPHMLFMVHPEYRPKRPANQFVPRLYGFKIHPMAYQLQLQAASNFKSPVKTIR
UniProt P23786: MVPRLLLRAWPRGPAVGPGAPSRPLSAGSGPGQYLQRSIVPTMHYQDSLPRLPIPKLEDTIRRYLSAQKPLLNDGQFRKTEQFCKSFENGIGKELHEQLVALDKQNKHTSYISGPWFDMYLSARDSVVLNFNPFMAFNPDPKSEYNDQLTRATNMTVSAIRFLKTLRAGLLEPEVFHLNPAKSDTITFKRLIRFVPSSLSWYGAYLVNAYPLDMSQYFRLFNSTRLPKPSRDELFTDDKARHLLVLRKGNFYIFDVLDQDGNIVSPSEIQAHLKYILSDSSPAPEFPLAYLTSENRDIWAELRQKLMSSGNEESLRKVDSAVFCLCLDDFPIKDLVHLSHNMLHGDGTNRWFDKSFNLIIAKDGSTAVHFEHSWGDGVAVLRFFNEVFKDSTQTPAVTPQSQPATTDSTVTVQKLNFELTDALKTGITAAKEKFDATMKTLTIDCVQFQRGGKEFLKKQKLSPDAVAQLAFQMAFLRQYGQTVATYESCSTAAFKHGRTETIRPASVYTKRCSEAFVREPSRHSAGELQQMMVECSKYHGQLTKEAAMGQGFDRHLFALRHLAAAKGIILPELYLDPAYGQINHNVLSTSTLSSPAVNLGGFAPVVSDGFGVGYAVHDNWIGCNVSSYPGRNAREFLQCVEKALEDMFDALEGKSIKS
UniProt P68400, whole entry, looked up: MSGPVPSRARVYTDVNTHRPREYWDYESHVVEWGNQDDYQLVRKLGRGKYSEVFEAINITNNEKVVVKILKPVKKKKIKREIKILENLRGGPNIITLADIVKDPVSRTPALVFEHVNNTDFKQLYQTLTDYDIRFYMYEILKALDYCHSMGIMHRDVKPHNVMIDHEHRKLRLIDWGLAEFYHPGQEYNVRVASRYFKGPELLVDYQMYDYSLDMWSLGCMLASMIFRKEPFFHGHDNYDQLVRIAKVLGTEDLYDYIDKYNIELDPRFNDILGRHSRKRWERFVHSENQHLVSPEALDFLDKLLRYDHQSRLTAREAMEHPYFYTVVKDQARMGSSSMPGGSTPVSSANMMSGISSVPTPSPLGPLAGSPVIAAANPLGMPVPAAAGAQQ
UniProt Q92828: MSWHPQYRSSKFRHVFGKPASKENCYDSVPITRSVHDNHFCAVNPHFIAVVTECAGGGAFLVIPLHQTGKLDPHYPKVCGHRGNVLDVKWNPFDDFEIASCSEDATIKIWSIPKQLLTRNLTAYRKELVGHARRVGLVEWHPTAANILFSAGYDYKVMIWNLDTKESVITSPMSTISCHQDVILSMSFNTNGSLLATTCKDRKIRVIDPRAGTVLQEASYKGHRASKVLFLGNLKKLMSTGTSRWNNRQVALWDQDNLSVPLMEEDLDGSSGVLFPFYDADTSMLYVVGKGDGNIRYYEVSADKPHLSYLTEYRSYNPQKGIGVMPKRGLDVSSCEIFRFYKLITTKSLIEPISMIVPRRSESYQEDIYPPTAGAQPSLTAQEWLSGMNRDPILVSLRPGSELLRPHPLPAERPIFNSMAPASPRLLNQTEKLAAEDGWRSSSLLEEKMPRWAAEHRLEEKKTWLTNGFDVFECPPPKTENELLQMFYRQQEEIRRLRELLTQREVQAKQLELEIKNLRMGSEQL
UniProt Q9H0A8, whole entry, looked up: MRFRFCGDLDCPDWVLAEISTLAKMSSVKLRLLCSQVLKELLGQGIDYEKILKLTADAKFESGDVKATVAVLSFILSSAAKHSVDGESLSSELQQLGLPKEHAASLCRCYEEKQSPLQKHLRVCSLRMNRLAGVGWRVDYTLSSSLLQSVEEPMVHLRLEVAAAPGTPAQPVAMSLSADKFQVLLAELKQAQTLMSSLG
UniProt P12074, whole entry, looked up: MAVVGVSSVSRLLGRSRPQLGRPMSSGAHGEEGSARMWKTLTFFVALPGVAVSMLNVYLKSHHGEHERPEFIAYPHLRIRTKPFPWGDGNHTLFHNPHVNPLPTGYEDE
UniProt P21964: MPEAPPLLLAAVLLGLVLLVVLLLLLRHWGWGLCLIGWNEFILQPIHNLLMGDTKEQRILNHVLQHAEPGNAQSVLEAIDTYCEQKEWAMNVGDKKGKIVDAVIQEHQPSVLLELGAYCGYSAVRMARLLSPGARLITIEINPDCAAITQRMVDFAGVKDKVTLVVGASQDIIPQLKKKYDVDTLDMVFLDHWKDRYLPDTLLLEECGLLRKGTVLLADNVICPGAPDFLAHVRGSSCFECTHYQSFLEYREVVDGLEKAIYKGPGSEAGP
UniProt Q8IUI8: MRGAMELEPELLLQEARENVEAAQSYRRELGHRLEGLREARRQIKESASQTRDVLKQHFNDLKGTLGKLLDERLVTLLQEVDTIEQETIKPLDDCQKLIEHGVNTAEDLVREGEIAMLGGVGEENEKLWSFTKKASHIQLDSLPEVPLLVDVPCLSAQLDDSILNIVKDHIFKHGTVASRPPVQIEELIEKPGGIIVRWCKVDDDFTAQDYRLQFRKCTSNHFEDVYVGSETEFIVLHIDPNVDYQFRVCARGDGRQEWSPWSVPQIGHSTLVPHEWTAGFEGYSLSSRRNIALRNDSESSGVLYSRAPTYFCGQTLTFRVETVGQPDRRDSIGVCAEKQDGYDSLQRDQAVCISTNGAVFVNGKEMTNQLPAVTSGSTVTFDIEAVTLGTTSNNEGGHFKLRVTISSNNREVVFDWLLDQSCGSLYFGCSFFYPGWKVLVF
UniProt P19784, whole entry, looked up: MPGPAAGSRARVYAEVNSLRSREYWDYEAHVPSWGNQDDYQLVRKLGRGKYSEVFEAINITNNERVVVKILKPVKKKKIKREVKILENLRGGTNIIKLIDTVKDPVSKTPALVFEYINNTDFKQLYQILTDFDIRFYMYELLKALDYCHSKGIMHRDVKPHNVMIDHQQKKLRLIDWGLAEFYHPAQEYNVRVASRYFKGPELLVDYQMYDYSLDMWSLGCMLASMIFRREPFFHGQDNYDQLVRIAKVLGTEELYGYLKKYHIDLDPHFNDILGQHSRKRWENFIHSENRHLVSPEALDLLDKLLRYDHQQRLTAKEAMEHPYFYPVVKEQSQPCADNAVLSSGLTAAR
UniProt P50416: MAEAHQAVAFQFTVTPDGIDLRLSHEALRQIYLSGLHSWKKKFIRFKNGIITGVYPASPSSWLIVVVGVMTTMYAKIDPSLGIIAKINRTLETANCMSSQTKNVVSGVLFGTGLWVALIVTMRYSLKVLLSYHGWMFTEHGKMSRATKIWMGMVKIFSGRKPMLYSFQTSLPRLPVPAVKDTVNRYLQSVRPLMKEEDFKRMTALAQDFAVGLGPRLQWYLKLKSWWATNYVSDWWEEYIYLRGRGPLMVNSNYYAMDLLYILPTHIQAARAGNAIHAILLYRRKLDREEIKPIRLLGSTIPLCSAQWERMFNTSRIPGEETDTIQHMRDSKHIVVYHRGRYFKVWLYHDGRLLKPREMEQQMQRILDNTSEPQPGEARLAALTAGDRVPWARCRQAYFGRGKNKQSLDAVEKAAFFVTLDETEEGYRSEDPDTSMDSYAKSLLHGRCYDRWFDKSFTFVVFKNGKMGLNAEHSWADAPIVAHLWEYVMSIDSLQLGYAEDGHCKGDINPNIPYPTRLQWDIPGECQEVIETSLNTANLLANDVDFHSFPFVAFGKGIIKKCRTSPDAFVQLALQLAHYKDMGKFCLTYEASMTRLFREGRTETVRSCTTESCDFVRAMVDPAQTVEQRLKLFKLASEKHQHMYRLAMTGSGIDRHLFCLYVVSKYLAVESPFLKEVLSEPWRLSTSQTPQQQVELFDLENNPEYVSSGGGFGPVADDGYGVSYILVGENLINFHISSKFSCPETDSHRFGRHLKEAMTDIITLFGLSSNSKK
UniProt O75390: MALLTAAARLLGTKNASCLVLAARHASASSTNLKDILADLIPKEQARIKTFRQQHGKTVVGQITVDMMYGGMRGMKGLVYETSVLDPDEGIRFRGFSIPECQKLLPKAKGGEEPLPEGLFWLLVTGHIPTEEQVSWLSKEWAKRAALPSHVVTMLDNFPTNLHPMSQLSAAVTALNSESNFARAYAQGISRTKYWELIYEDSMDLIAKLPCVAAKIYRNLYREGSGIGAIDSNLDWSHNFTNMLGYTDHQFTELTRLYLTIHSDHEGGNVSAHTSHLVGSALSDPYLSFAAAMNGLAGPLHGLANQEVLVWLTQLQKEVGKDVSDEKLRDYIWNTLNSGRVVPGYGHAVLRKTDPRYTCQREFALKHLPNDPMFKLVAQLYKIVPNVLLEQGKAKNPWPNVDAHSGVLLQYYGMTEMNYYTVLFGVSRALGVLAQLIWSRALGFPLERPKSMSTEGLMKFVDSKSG
UniProt Q9UNS2: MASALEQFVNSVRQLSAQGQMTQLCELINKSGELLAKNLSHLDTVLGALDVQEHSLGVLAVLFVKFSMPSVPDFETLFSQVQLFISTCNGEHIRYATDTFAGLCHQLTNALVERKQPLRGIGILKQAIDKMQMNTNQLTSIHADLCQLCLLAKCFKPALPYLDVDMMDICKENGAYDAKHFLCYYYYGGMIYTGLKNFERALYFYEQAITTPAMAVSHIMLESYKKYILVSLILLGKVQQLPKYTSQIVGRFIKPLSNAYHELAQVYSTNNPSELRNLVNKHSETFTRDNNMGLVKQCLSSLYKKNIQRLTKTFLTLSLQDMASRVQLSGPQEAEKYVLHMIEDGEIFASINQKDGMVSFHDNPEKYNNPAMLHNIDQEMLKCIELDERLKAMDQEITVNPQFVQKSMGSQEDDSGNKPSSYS
UniProt Q53ET0: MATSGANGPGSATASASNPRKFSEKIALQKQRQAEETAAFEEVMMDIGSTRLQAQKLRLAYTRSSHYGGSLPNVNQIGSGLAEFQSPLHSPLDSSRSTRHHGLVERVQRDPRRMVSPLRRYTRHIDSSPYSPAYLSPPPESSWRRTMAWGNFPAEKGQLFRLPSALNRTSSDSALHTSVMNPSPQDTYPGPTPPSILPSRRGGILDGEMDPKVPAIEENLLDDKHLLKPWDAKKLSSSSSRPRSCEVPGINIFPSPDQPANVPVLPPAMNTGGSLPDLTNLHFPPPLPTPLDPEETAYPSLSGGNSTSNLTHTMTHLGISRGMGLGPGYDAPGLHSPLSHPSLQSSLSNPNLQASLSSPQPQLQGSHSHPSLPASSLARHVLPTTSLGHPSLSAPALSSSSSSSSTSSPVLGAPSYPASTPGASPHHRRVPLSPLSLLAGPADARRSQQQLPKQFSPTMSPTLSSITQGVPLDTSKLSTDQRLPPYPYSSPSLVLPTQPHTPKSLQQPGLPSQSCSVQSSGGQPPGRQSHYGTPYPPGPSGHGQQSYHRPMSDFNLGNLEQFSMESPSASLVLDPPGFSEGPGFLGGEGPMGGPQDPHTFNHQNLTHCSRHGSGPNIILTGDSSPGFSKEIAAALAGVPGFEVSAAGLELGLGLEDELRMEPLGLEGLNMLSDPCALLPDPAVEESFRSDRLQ
UniProt Q8N684: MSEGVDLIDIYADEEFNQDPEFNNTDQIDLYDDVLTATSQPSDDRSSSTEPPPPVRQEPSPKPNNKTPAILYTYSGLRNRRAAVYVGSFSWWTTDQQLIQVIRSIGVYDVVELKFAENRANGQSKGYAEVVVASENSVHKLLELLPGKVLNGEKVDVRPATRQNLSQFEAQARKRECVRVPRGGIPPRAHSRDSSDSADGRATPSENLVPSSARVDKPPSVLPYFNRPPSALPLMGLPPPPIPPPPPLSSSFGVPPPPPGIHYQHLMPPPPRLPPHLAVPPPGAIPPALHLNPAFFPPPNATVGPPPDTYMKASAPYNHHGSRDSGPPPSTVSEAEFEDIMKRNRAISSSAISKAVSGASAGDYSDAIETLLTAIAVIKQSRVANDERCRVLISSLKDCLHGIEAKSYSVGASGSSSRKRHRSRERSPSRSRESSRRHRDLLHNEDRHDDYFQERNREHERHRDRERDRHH
UniProt Q96H96: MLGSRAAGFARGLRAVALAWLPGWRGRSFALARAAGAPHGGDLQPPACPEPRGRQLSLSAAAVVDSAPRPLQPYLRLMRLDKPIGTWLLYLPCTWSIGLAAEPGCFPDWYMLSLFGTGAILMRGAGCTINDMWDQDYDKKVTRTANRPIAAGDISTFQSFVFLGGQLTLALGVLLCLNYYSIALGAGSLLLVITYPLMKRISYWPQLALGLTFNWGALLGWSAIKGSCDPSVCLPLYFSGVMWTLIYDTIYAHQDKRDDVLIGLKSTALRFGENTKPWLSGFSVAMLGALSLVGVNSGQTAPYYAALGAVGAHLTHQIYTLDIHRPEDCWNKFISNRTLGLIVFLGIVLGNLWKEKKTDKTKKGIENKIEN

Each target was assayed with CC[C@H](C)N1C=C(C2=C(C=C(C=C21)C3=CN=C(C=C3)N4CCNCC4)C(=O)NCC5=C(C=C(NC5=O)C)C)C (assay: log2 fold change, soluble protein after heating vs DMSO (PISA); higher = thermal stabilisation; K562 cells, 10 uM, 30 min; active = over 0.2 and 3.5 SD of the protein, either way, in both replicates (recomputed)).
Procedure, shortened: (§1)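 Thermal stability values are relative to control samples and come from duplicates. They are expressed as log2 fold changes. For measurement, K562 cells (2×10^6 cells/mL) received 10 μM compound for 30 min, and aliquots were heated for 3 min over 48°C-58°C, pooled, and extracted at 4°C in PBS with 0.5% NP-40. Soluble protein, the supernatant after 21,000xg for 90 min, was quantified by TMTpro 16plex LC-MS/MS with equalised channel sums.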

log2 fold change, inactive:
CPSF1 (UniProt Q10570) 0.031
COPS4 (UniProt Q9BT78) 0.013
COMMD2 (UniProt Q86X83) 0.07
CPD (UniProt O75976) -0.017
CRCP (UniProt O75575) 0.185
COMMD3 (UniProt Q9UBI1) 0.07
COX5A (UniProt P20674) -0.081
COX5B (UniProt P10606) -0.047
CSNK2B (UniProt P67870) 0.043
CPT2 (UniProt P23786) -0.019
CSNK2A1 (UniProt P68400) 0.002
CRK (UniProt P46108) 0.005
COQ9 (UniProt O75208) 0.001
COX20 isoform 2 (UniProt Q5RI15) -0.01
CORO2A (UniProt Q92828) 0.01
COMMD4 (UniProt Q9H0A8) 0.032
COX6A1 (UniProt P12074) 0.027
CSK (UniProt P41240) 0.05
COMT (UniProt P21964) 0.01
CRLF3 (UniProt Q8IUI8) 0.067
CSNK2A2 (UniProt P19784) 0.028
CPT1A (UniProt P50416) 0.045
CPNE7 (UniProt Q9UBL6) 0.042
COMMD1 (UniProt Q8N668) 0.054
CS (UniProt O75390) 0.027
CRLS1 (UniProt Q9UJA2) 0.001
COPS3 (UniProt Q9UNS2) -0.001
COPS3 isoform 2 (UniProt Q9UNS2) 0.001
COL6A1 (UniProt P12109) 0.241
CRYM-AS1 (UniProt A6NIL9) 0.233
CRTC2 (UniProt Q53ET0) 0.061
CSE1L (UniProt P55060) 0.047
CPSF7 isoform 3 (UniProt Q8N684) 0.053

Each target was assayed with CC[C@H](C)[C@@H](C(=O)N[C@@H]([C@@H](C)O)C(=O)N[C@@H](CC(C)C)C(=O)[C@]1(CO1)C)NC(=O)[C@H]([C@@H](C)CC)N(C)C(=O)C [epoxomicin] in the same assay as above.
Procedure, shortened: as §1

log2 fold change, inactive:
CPSF1 (UniProt Q10570) -0.038
COPS4 (UniProt Q9BT78) 0.047
COQ2 (UniProt Q96H96) -1.35
COMMD2 (UniProt Q86X83) -0.088
CPD (UniProt O75976) 0.025
CRCP (UniProt O75575) 0.267
COX5A (UniProt P20674) 0.234
COX5B (UniProt P10606) 0.192
CSNK2B (UniProt P67870) 0.019
CPT2 (UniProt P23786) 0.011
CSNK2A1 (UniProt P68400) -0.012
CRK (UniProt P46108) 0.026
COQ9 (UniProt O75208) -0.041
COX20 isoform 2 (UniProt Q5RI15) 0
COMMD4 (UniProt Q9H0A8) 0.02
COMMD6 isoform 2 (UniProt Q7Z4G1) 0.33
CSK (UniProt P41240) 0.014
COMT (UniProt P21964) -0.023
CRLF3 (UniProt Q8IUI8) 0
CSNK2A2 (UniProt P19784) 0.029
CPT1A (UniProt P50416) -0.003
COMMD1 (UniProt Q8N668) -0.071
CS (UniProt O75390) 0.01
COPS3 (UniProt Q9UNS2) 0.054
COPS3 isoform 2 (UniProt Q9UNS2) 0.059
CRYM-AS1 (UniProt A6NIL9) -0.107
CRTC2 (UniProt Q53ET0) 0.098
CSE1L (UniProt P55060) 0.03
COL6A3 (UniProt P12111) -0.133
CPSF7 isoform 3 (UniProt Q8N684) -0.042

The targets below were run with CCn1c(C(=O)N(C2CC2)C2CC2)cc2c3c(ncn3C)c(Nc3cc(C)n(C)n3)nc21 in the same assay as above.
Procedure, shortened: as §1

log2 fold change, inactive:
COQ2 (UniProt Q96H96) -0.02
COMP (UniProt P49747) -0.003
COMMD4 (UniProt Q9H0A8) -0.025
COMMD6 isoform 2 (UniProt Q7Z4G1) 0.083
COX6A1 (UniProt P12074) 0
CPNE7 (UniProt Q9UBL6) -0.093
COL6A1 (UniProt P12109) 0.044
COL6A3 (UniProt P12111) 0.013
